From publication PMC12185749
No constants are given. Whether binding was seen depends on the method and setting. In cells and extracts the contact can be indirect. Some entries that bind do so weakly or less than the wild type. Sequences can lack the tags named with a protein. One block for each binder: values may come before it.

Experiments:
ERLIN2-Flag = target: T1, ERLIN2-Flag (UniProt O94905); assay: co-IP; NPC cells with CLPTM1L-HA and ERLIN2-Flag; forward and reverse immunoprecipitation; lysate incubated overnight with antibody, Protein A/G magnetic beads 4 h at 4 °C, washed three times with lysis buffer, western blot
T1 sequence: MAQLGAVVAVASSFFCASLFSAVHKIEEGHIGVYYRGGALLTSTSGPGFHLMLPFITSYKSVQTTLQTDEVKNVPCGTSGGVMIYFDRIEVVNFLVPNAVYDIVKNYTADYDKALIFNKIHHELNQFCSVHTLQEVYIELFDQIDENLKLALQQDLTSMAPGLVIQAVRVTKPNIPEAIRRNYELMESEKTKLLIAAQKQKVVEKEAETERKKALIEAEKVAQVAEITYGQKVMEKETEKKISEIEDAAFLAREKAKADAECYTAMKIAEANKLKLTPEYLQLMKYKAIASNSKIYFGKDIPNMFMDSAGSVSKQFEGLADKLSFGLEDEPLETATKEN

CLPTM1L-HA = target: T2, CLPTM1L-HA (UniProt Q96KA5); assay: as above
T2 sequence: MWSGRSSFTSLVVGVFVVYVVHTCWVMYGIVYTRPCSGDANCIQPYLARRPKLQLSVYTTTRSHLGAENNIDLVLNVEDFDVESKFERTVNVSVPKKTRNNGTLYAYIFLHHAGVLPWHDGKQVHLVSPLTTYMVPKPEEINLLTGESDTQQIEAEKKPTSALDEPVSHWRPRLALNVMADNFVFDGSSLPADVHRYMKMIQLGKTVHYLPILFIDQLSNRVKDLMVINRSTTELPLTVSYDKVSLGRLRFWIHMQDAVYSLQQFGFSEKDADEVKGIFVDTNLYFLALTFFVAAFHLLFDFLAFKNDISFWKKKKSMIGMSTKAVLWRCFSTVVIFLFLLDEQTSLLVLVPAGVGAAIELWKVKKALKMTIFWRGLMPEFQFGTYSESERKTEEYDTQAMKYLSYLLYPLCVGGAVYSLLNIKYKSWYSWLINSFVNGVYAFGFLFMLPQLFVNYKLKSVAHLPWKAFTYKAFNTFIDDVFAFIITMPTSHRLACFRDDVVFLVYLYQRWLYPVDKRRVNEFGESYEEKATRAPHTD

wild-type CLPTM1L-HA = target: T3, wild-type CLPTM1L-HA (UniProt Q96KA5); assay: co-IP; 293T cells co-transfected with ERLIN2-FLAG and CLPTM1L-HA (wild type or deletion mutants); immunoprecipitation with anti-HA antibodies, immunoblot
T3 sequence: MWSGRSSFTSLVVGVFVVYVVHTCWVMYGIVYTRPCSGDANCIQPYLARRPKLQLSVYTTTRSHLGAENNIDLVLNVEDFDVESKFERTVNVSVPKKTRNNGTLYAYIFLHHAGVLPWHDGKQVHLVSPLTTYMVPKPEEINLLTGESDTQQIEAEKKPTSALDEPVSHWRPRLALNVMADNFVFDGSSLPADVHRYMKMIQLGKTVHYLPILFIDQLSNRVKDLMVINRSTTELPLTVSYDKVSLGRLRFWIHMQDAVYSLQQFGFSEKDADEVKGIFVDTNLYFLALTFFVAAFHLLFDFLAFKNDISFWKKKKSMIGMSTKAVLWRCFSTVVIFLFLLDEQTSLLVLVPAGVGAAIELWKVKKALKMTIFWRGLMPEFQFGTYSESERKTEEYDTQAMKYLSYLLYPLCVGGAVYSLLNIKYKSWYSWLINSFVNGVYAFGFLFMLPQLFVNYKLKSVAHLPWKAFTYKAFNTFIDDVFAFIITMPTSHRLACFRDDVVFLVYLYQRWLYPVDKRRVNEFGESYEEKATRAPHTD

binding (ERLIN2-Flag): binds
B1: CLPTM1L-HA (protein, UniProt Q96KA5 1-538)
chain: MWSGRSSFTSLVVGVFVVYVVHTCWVMYGIVYTRPCSGDANCIQPYLARRPKLQLSVYTTTRSHLGAENNIDLVLNVEDFDVESKFERTVNVSVPKKTRNNGTLYAYIFLHHAGVLPWHDGKQVHLVSPLTTYMVPKPEEINLLTGESDTQQIEAEKKPTSALDEPVSHWRPRLALNVMADNFVFDGSSLPADVHRYMKMIQLGKTVHYLPILFIDQLSNRVKDLMVINRSTTELPLTVSYDKVSLGRLRFWIHMQDAVYSLQQFGFSEKDADEVKGIFVDTNLYFLALTFFVAAFHLLFDFLAFKNDISFWKKKKSMIGMSTKAVLWRCFSTVVIFLFLLDEQTSLLVLVPAGVGAAIELWKVKKALKMTIFWRGLMPEFQFGTYSESERKTEEYDTQAMKYLSYLLYPLCVGGAVYSLLNIKYKSWYSWLINSFVNGVYAFGFLFMLPQLFVNYKLKSVAHLPWKAFTYKAFNTFIDDVFAFIITMPTSHRLACFRDDVVFLVYLYQRWLYPVDKRRVNEFGESYEEKATRAPHTD

binding (CLPTM1L-HA): binds
B2: ERLIN2-Flag (protein, UniProt O94905 1-339)
chain: MAQLGAVVAVASSFFCASLFSAVHKIEEGHIGVYYRGGALLTSTSGPGFHLMLPFITSYKSVQTTLQTDEVKNVPCGTSGGVMIYFDRIEVVNFLVPNAVYDIVKNYTADYDKALIFNKIHHELNQFCSVHTLQEVYIELFDQIDENLKLALQQDLTSMAPGLVIQAVRVTKPNIPEAIRRNYELMESEKTKLLIAAQKQKVVEKEAETERKKALIEAEKVAQVAEITYGQKVMEKETEKKISEIEDAAFLAREKAKADAECYTAMKIAEANKLKLTPEYLQLMKYKAIASNSKIYFGKDIPNMFMDSAGSVSKQFEGLADKLSFGLEDEPLETATKEN

binding (wild-type CLPTM1L-HA): binds
B3: wild-type ERLIN2-FLAG (protein, UniProt O94905 1-339)
chain: MAQLGAVVAVASSFFCASLFSAVHKIEEGHIGVYYRGGALLTSTSGPGFHLMLPFITSYKSVQTTLQTDEVKNVPCGTSGGVMIYFDRIEVVNFLVPNAVYDIVKNYTADYDKALIFNKIHHELNQFCSVHTLQEVYIELFDQIDENLKLALQQDLTSMAPGLVIQAVRVTKPNIPEAIRRNYELMESEKTKLLIAAQKQKVVEKEAETERKKALIEAEKVAQVAEITYGQKVMEKETEKKISEIEDAAFLAREKAKADAECYTAMKIAEANKLKLTPEYLQLMKYKAIASNSKIYFGKDIPNMFMDSAGSVSKQFEGLADKLSFGLEDEPLETATKEN
